Publication PMC6925144, “A prospective compound screening contest identified broader inhibitors for Sirtuin 1” (Scientific Reports, 2019)
Whole data set: some 3,200 compounds, median “TSA(without NAD+) / Primary screening (TSA) / delta Tm (K)” near -0.07, cut for the highest 2% near 0.37. The list shows a part of the results.

Amino acid sequences for entries named in this document (tags omitted). Residues count along the entry.
UniProt Q96EB6, 2-747 limits assumed: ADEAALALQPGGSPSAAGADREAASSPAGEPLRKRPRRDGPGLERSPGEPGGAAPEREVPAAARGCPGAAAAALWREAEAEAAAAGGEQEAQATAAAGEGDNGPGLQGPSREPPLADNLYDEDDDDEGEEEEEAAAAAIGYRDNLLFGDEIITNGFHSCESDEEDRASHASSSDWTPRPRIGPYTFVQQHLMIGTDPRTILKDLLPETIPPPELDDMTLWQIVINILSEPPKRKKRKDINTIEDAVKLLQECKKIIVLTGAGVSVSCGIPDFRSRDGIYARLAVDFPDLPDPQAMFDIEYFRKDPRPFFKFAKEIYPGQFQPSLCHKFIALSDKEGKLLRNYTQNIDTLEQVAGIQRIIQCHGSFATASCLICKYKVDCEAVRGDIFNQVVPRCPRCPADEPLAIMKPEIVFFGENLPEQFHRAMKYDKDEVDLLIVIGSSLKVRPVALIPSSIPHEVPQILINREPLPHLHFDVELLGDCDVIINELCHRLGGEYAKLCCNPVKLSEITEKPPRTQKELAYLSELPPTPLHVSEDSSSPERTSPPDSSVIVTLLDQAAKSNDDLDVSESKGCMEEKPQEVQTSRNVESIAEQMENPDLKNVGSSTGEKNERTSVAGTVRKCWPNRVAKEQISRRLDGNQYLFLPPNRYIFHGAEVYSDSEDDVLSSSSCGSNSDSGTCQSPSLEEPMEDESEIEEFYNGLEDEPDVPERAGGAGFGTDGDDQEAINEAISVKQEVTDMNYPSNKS

Molecular target: NAD-dependent deacetylase Sirtuin 1 (human, UniProt Q96EB6)
Assay: primary screen, delta tm
Parameters: single well (n = 1)
Conditions: 10 µM
Method in brief: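 Thermal shift of Sirtuin 1 measured without NAD+, compound at 10 µM (n = 1); value is ΔTm, with hits defined as ΔTm > 0.45 K or < −1.5 K. Hits retested at 5, 10, 20 µM (n = 4) and counterscreened on bovine carbonic anhydrase and ABL1 SH2 domain.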

SMILES	TSA(without NAD+) / Primary screening (TSA) / delta Tm (K)
CCN(CC(=O)OC(C)C(=O)NC(N)=O)Cc1ccc(Cl)cc1 (stereo not shown)	-0.03
CCOc1ccc2oc(C(=O)NN3C(C)CCCC3C)c(C)c2c1 (stereo not shown)	-0.08
COc1ccc(C(=O)OCC(=O)NC(Cc2ccccc2)C(C)=O)cc1S(=O)(=O)N1CCCC1 (stereo not shown)	0.22
O=C(/C=C/c1ccc(S(=O)(=O)N2CCc3ccccc32)cc1)Nc1cccc(S(=O)(=O)NCc2ccco2)c1	0.36
NC(=O)C1CCCN1Cc1nc2cc(Br)cnc2[nH]1 (stereo not shown)	-0.03
Cc1ccc2nc(CSc3nnc(NCc4ccco4)s3)cc(=O)n2c1	0.12
CN(C)c1ccc(C=C2C(=O)NC(=S)NC2=O)cc1	-0.24
COC(=O)C(CNC(=O)c1ccc2nccn2c1)c1ccc(F)cc1 (stereo not shown)	0.08
CC1CC(C)(C)CC2(C1)NC(=O)N(CC(=O)Nc1ccc(C(N)=O)cc1)C2=O (stereo not shown)	0.02
CN(C(=O)CSc1nc(-c2cccs2)cc(C(F)(F)F)c1C#N)C1CCS(=O)(=O)C1 (stereo not shown)	-0.32
O=C1CCCN1c1cccc(NS(=O)(=O)c2cccc(F)c2)c1	-0.02
O=C(CCc1ccccc1F)NCc1cccc(NC(=O)c2ccncc2)c1	-0.12
Cc1ccc(N(C)S(=O)(=O)c2cccc(C(=O)NNC(=O)CC34CC5CC(CC(C5)C3)C4)c2)cc1	0.45
Cc1cc(CC(=O)N2CCC3(CCC3)C2)n[nH]1	-0.04
CCCCCCC(C)NN (stereo not shown)	-0.15
NC(=O)c1ccc(NC(=O)NCc2ccnc3ccccc23)cc1Cl	-0.07
CON(C)C(=O)c1[nH]c2ccc(C)cc2c1C	-0.53
O=C1/C(=C/c2cc3c(cc2Br)OCO3)Oc2cc(O)ccc21	0.16
O=C(NCc1ccc(-n2cccn2)nc1)c1ccc(/C=C/c2ccc3ccccc3n2)cc1	-0.12
Cc1c2c(nc3c1oc1ccccc13)CCCCCCCCCC2	0.18
CCCN(C(=O)c1ccc(Oc2ccccc2)cc1)C1CCS(=O)(=O)C1 (stereo not shown)	-0.07
O=C(NCc1ccc(N2CCCC2)cc1)c1csc([N+](=O)[O-])c1	-0.03
CC(c1ccco1)N(C)CC(=O)N1CCC(C(N)=O)CC1 (stereo not shown)	-0.12
Cc1ccc(Cl)cc1NC(=O)CC#N	0.07

SMILES	TSA(without NAD+) / Primary screening (TSA) / delta Tm (K)
CCc1ccc(C(Nc2ccc3nnnn3n2)c2cccc(F)c2)cc1 (stereo not shown)	-0.07
Cn1cnnc1Sc1ccc(Cl)cc1NC(=O)c1cnc2ccccc2n1	-0.03
COC(=O)c1cn(CC(=O)NCCc2cccs2)c2ccccc12	0.09
NC(=O)c1c(NC(=O)CSc2nnc(N3CCCC3)n2CC2CCCO2)sc2c1CCCC2 (stereo not shown)	-0.03
CN(c1ccc(C(N)=O)cc1)S(=O)(=O)c1ccccc1	-0.31
CC(=O)Nc1ccc(NCc2nnc3n(C)c(=O)c4ccccc4n23)cc1Cl	0.08
Cc1ccc(C(=O)NC(C)c2nc(C)c(C(=O)O)s2)s1 (stereo not shown)	-0.12
CCOc1ccc(C(=O)NCCc2ccc(S(N)(=O)=O)cc2)cc1	0.09
Cc1cnn(CCNCc2coc(-c3ccccc3Cl)n2)c1	-0.12
O=C(COc1ccccc1-c1ccccc1)Nc1cccc(S(=O)(=O)NCc2ccco2)c1	0.13
Cc1ccc(NC(=O)C(OC(=O)C23CC4CC(CC(O)(C4)C2)C3)c2ccccc2)c([N+](=O)[O-])c1 (stereo not shown)	0.07
O=C(Nc1cccc(S(=O)(=O)NCc2ccco2)c1)c1ccccc1OCc1ccccc1Cl	0.06
CCS(=O)(=O)Nc1ccc(C(C)NCc2cnn(C)c2C)cc1 (stereo not shown)	-0.14
CC(CN1CCOCC1)NC(=O)C(Cc1ccccc1)n1cnnn1 (stereo not shown)	-0.23
CS(=O)(=O)c1ccc(NC(=O)c2ccccc2SCC(=O)NC23CC4CC(CC(C4)C2)C3)cc1	-0.03
CCOc1ccc(Oc2ccc(NC(=O)CNC(=O)CC34CC5CC(CC(C5)C3)C4)cc2)cc1	0.38
O=c1c2ccccc2ncn1CC(O)c1ccccc1Cl (stereo not shown)	-0.17
Cc1nc(-c2ccc(CNC(=O)c3cccc([N+](=O)[O-])c3)cc2)cs1	0.09
Cc1nc(-c2ccccn2)[nH]c(=O)c1CC(=O)NCc1cccc(Oc2ccccc2)c1	0.09
Cc1nc(SCC(=O)N(C)C2CCCc3ccccc32)c2ccccc2n1 (stereo not shown)	-0.22
Cc1cccc(C)c1OC(=O)c1ccc(C#N)cc1	-0.12
COC(=O)c1cc2ccccc2c(CN(C)Cc2ccc(C(N)=O)cc2)c1O	0.06
NNc1ncnc2c1cnn2-c1ccccc1	-0.05
NC(=O)c1ccc(NC(=O)COC(=O)COc2ccc3c(c2)CCC3)cc1	-0.11

Individual results from the results shown.
Under TSA(without NAD+) / Primary screening (TSA) / delta Tm (K), Cc1nc(-c2ccc(CNC(=O)c3cccc([N+](=O)[O-])c3)cc2)cs1 reads 0.09
Under TSA(without NAD+) / Primary screening (TSA) / delta Tm (K), NC(=O)c1ccc(NC(=O)COC(=O)COc2ccc3c(c2)CCC3)cc1 reads -0.11
Under TSA(without NAD+) / Primary screening (TSA) / delta Tm (K), NNc1ncnc2c1cnn2-c1ccccc1 reads -0.05

Next entries follow.

SMILES	TSA(without NAD+) / Primary screening (TSA) / delta Tm (K)
O=C1NC(=S)NC(=O)C1=NNc1c(F)cccc1F	-0.08
COc1cc(CN(C)C(=O)CN2C(=O)COc3ccccc32)ccc1OCc1ccccc1	0.13
CC1CCc2c(sc3nc4c5ccccc5c5nnnn5n4c(=O)c23)C1 (stereo not shown)	-0.17
COc1ccc(C)cc1N1CC(C(=O)N2CCC(OC)CC2)CC1=O (stereo not shown)	0.07
COC(=O)Cn1cnc2c(N)ncnc21	-0.14
O=C(/C=C/c1ccc2c(c1)OCO2)N1CCCC1c1nc2ccccc2s1 (stereo not shown)	0.05
COc1cccc(NC(=O)COc2ccc(C(=O)NC(C)C34CC5CC(CC(C5)C3)C4)cc2)c1 (stereo not shown)	0.03
O=c1c2ccccc2ncn1CC(O)c1cccc(F)c1 (stereo not shown)	-0.13
CCOC(=O)N(C)CC(=O)Nc1ccc(-n2cnc3ccccc32)nc1	0.12
CC[C@@H]1C[C@H]1CN	-0.03
COc1cccc(C2C(C(=O)/C=C/c3ccco3)=C(O)C(=O)N2CCCN2CCOCC2)c1OC (stereo not shown)	0.12
Cc1cnc(C(=O)Nc2ccc(I)cc2C)cn1	-0.23
NC(=O)C1(c2ccccc2)CCNC1 (stereo not shown)	-0.08
CC1COCCN1c1ncnc2ccsc12 (stereo not shown)	-0.12
Cc1ccccc1COC(=O)/C(=C\c1ccccc1)n1nnnc1C	-0.24
O=c1cc(N2CCc3ccccc3CC2)nc2ccccn12	-0.24
NC(=O)C1CCCN(c2ncnc3cc(Cl)ccc23)C1 (stereo not shown)	0.08
Nc1nc(CN2CC(CO)Oc3ccccc32)nc(Nc2ccc(F)cc2)n1 (stereo not shown)	-0.08
CC1CN(S(=O)(=O)c2cccc(C(=O)OCC(=O)COC(=O)c3cccc(S(=O)(=O)N4CC(C)OC(C)C4)c3)c2)CC(C)O1 (stereo not shown)	-0.11
N#CCc1c[nH]c2ccc(C(N)=O)cc12	-0.04
Cc1ccc2c(COc3ncnc4sc5c(c34)CCC5)cc(=O)oc2c1C	-0.13
CC1CCc2[nH]c3ccc(C(=O)O)cc3c2C1 (stereo not shown)	-0.13
Cc1sc2ncnc(N3CCC(C(=O)Nc4nn5cnnc5s4)CC3)c2c1C	-0.03
O=C(OCC(=O)C12CC3CC(CC(C3)C1)C2)c1nn(Cc2ccccc2)c(=O)c2ccccc12	-0.12

SMILES	TSA(without NAD+) / Primary screening (TSA) / delta Tm (K)
Cc1cc(C(=O)O)c2ccccc2n1	-0.02
NC(=O)C1CCN(C(=O)c2ccn(-c3ccc(F)cc3)n2)C1 (stereo not shown)	0.02
Cc1ccc(NC(=O)c2ccc(Cl)nc2Cl)cc1Cl	-0.22
CN(C)C(C)(C)CNCc1c[nH]nc1-c1ccc2c(c1)OCCO2	-0.08
COc1cccc(/C=N/c2ccc(C)cc2C)c1O	0.02
Cc1ccc(OCc2nc3ccccc3n2Cc2ccccc2)cc1	-0.15
CCOc1ccc(C(NC(=O)c2cccc(C(N)=O)c2)c2ccccc2)cc1 (stereo not shown)	-0.13
Cc1c(C(=O)C2=C(O)C(=O)N(CCCN3CCOCC3)C2c2ccco2)cnn1-c1ccccc1 (stereo not shown)	-0.18
CC(C)(C)c1ccccc1NC(=O)c1ccc(S(=O)(=O)N2CCCC2)cc1	-0.07
CCOC(=O)CN	-0.12
O=C(Nc1cccc(S(=O)(=O)N2CCOCC2)c1)c1cn(-c2ccccc2)nc1-c1ccc(Cl)cc1	0.58
CC(=O)Nc1cccc2c1CCN(c1cc(=O)n3ccccc3n1)C2	-0.23
C1CCCC2(CC1)CCNC2	0.03
Cc1cc(C)c2c(n1)sc1c(N3CCOCC3)ncnc12	-0.07
Cc1ccc(N(C)S(=O)(=O)c2cccc(C(=O)NNC(=O)c3ccncc3)c2)cc1	-0.08
CN(C)c1ccnc(N2CCCC(N3CCNC3=O)C2)n1 (stereo not shown)	-0.18
O=C(Nc1ccc2[nH]c(=O)[nH]c2c1)c1cc(S(=O)(=O)NCC2CCCO2)ccc1Br (stereo not shown)	-0.15
Nc1ccc(-n2ncc3c(=O)[nH]cnc32)cc1	0.02
O=C1CC[C@@H](Nc2cnc3cc(F)c(F)cc3n2)[C@H](c2ccccc2)N1	-0.18
O=c1cc(N2CCC(Nc3ccccc3)CC2)nc2ccccn12	-0.04
COC(=O)c1cc(-c2csc(NC(=O)c3cccc(NC(=O)c4cnoc4C)c3)n2)c[nH]1	0.46
COc1ccc(OCCN(C)C(=O)c2ccc(NC3=NS(=O)(=O)c4ccccc43)cc2)cc1	0.09
